{
  "source": "patent US20250375406A1",
  "about": "“TREATMENT OF NON-ALCOHOLIC STEATOHEPATITIS AND NON-ALCOHOLIC FATTY LIVER DISEASE” (VEROSCIENCE LLC, priority 2022, published 2025)",
  "key": {"NASH [1]": {"test_system": "NASH", "test": "L-DOPA plus pantethine with or without curcumin in high fat high fructose diet mice, Study 2 (Example 4)", "type": "in vivo", "details": "vehicle value assigned 1.0 (maximum score); 3 weeks treatment", "from_the_text": "After 3 weeks on the test diet, animals were sacrificed for analyses of body weight, body fat, blood glucose, and liver physiology."}, "NASH [2]": {"test_system": "NASH", "details": "vehicle set to 1.0; diet 66 days, then 32 days treatment"}},
  "data": [
    {"smiles": "CC(C)(CO)[C@@H](O)C(=O)NCCC(=O)NCCSSCCNC(=O)CCNC(=O)[C@H](O)C(C)(C)CO", "note": "[pantethine]", "values": [
      {"measurement": "NASH propensity score (liver weight x body weight x body fat x blood glucose level)", "setting": "NASH [1]", "result": 0.18},
      {"measurement": "NASH propensity score (liver triglyceride level x body weight x body fat x blood glucose level)", "setting": "NASH [2]", "result": 0.32}
    ]}
  ]
}
